# Measurements taken from the supplement of paper PMC8728848.
# The list shows a part of the results.
# Legend:
# Experiment in all cases: glycan array binding signal (z-score within array); higher = stronger binding
# Conditions in all cases: glycan notation: IUPAC condensed, linker removed
# [1] = target: Neu5Ac(a2-8)Neu5Ac
# How it was run: (§1)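 Negative Z-scores can be read as non-binding. The Z-score is calculated within each array and then averaged across arrays of one protein sequence at different concentrations or buffers and across linkers. Arrays, 3228 in all, were curated from the Consortium for Functional Glycomics database and kept only where the protein sequence was available.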
# [2] = target: Neu5Ac(a2-8)Neu5Ac(a2-3)Gal(b1-3)GalNAc(b1-4)[Neu5Ac(a2-3)]Gal(b1-4)Glc
# How it was run: as §1
# [3] = target: Neu5Ac(a2-8)Neu5Ac(a2-3)Gal(b1-3)GalNAc(b1-4)[Neu5Ac(a2-8)Neu5Ac(a2-3)]Gal(b1-4)Glc
# How it was run: as §1
# [4] = target: Neu5Ac(a2-8)Neu5Ac(a2-3)Gal(b1-4)Glc
# How it was run: as §1
# [5] = target: Neu5Ac(a2-8)Neu5Ac(a2-3)Gal(b1-4)GlcNAc
# How it was run: as §1
# [6] = target: Neu5Ac(a2-8)Neu5Ac(a2-3)[Gal(b1-3)GalNAc(b1-4)]Gal(b1-4)Glc
# How it was run: as §1
# [7] = target: Neu5Ac(a2-8)Neu5Ac(a2-3)[GalNAc(b1-4)]Gal(b1-4)Glc
# How it was run: as §1
# [8] = target: Neu5Ac(a2-8)Neu5Ac(a2-8)Neu5Ac
# How it was run: as §1
# [9] = target: Neu5Ac(a2-8)Neu5Ac(a2-8)Neu5Ac(a2-3)Gal(b1-4)Glc
# How it was run: as §1
# [10] = target: Neu5Ac(a2-8)Neu5Ac(a2-8)Neu5Ac(a2-3)[Gal(b1-3)GalNAc(b1-4)]Gal(b1-4)Glc
# How it was run: as §1
# [11] = target: Neu5Ac(a2-8)Neu5Ac(a2-8)Neu5Ac(a2-3)[GalNAc(b1-4)]Gal(b1-4)Glc
# How it was run: as §1
# [12] = target: Neu5Ac(a2-8)Neu5Ac(a2-8)Neu5Ac(a2-8)Neu5Ac(a2-3)[GalNAc(b1-4)]Gal(b1-4)Glc
# How it was run: as §1
# [13] = target: Neu5Ac(a2-8)Neu5Gc(a2-3)Gal(b1-4)GlcNAc
# How it was run: as §1
# [14] = target: Neu5Ac(b2-6)Gal(b1-4)GlcNAc
# How it was run: as §1
# [15] = target: Neu5Ac(b2-6)GalNAc
# How it was run: as §1
# [16] = target: Neu5Ac9Ac(a2-3)Gal(b1-3)GlcNAc
# How it was run: as §1
# [17] = target: Neu5Ac9Ac(a2-3)Gal(b1-4)GlcNAc
# How it was run: as §1
# [18] = target: Neu5Ac9Ac(a2-6)Gal(b1-4)GlcNAc
# How it was run: as §1
# [19] = target: Neu5Gc(a2-3)Gal(b1-3)GlcNAc
# How it was run: as §1
# [20] = target: Neu5Gc(a2-3)Gal(b1-3)[Fuc(a1-4)]GlcNAc
# How it was run: as §1
# [21] = target: Neu5Gc(a2-3)Gal(b1-4)Glc
# How it was run: as §1
# [22] = target: Neu5Gc(a2-3)Gal(b1-4)GlcNAc
# How it was run: as §1
# [23] = target: Neu5Gc(a2-3)Gal(b1-4)GlcNAc(b1-3)Gal(b1-4)GlcNAc(b1-2)Man(a1-3)[Neu5Gc(a2-3)Gal(b1-4)GlcNAc(b1-3)Gal(b1-4)GlcNAc(b1-2)Man(a1-6)]Man(b1-4)GlcNAc(b1-4)GlcNAc
# How it was run: as §1
# [24] = target: Neu5Gc(a2-3)Gal(b1-4)[Fuc(a1-3)]GlcNAc
# How it was run: as §1
# [25] = target: Neu5Gc(a2-6)Gal(b1-4)GlcNAc
# How it was run: as §1
# [26] = target: Neu5Gc(a2-6)GalNAc
# How it was run: as §1
# [27] = target: Neu5Gc(a2-8)Neu5Ac(a2-3)Gal(b1-4)GlcNAc
# How it was run: as §1
# [28] = target: Neu5Gc(a2-8)Neu5Gc(a2-3)Gal(b1-4)GlcNAc
# How it was run: as §1
# [29] = target: Neu5Gc(a2-8)Neu5Gc(a2-3)Gal(b1-4)GlcNAc(b1-3)Gal(b1-4)GlcNAc
# How it was run: as §1
# [30] = target: Neu5Gc(a2-8)Neu5Gc(a2-6)Gal(b1-4)GlcNAc
# How it was run: as §1
# [31] = target: Neu5Gc(b2-6)Gal(b1-4)GlcNAc
# How it was run: as §1
binder,measurement,setting,value
PX9961M-bvu-482-23-482 (Bacteroides vulgatus) (protein) WLDLAPSTQVDTETSINVLSDIEFTLNGIYSTMQSSDAYSGRLVYYGDVTGDDMQAVSSTKRTGNYYRFNFTKDNGPSSHWSYLYSIIQNCNLILMNVDKLSIDEDETEYKNDLKGQALAIRGMALFDLTRIFGYPYLKDNGASLGVPIVKELSTIDSKPARNTVAECYTEIISDLKNSTELLSGDFNKGKVNRWAAMTLLSRVYLYKGEYNEALTMAENAIKGAEKEGYALWTNEEYPTAWGNDASASNPGEILFEIVNLTTDSPGKESMGYLNSYNGYDDMCITCSFYQLLKKDPKDVRLKILSFDKKYYAYVNKYQPQQGENITDANIPLIRLSEAYLNAAEAAVQTGDNAKAVKYLNSIVQRANPENSVEGKTLTLENVLDERRKELVAEGHRMYDVIRNGMTVKRIDVKDSDINKTKHNTAYMEYDWNFHKILLPIPKKEMDANPNMKQNPGYVD,glycan array binding signal (z-score),[1],0.366
same,glycan array binding signal (z-score),[2],0.534
same,glycan array binding signal (z-score),[3],-1.07
same,glycan array binding signal (z-score),[4],0.075
same,glycan array binding signal (z-score),[5],0.316
same,glycan array binding signal (z-score),[6],-0.531
same,glycan array binding signal (z-score),[7],-0.405
same,glycan array binding signal (z-score),[8],-0.752
same,glycan array binding signal (z-score),[9],-0.188
same,glycan array binding signal (z-score),[10],-0.778
same,glycan array binding signal (z-score),[11],-0.066
same,glycan array binding signal (z-score),[12],0.048
same,glycan array binding signal (z-score),[13],18
same,glycan array binding signal (z-score),[14],-1.13
same,glycan array binding signal (z-score),[15],-0.083
same,glycan array binding signal (z-score),[16],0.98
same,glycan array binding signal (z-score),[17],-0.723
same,glycan array binding signal (z-score),[18],-0.642
same,glycan array binding signal (z-score),[19],-0.493
same,glycan array binding signal (z-score),[20],-0.288
same,glycan array binding signal (z-score),[21],0.689
same,glycan array binding signal (z-score),[22],-0.652
same,glycan array binding signal (z-score),[23],-0.131
same,glycan array binding signal (z-score),[24],0.76
same,glycan array binding signal (z-score),[25],0.549
same,glycan array binding signal (z-score),[26],-0.028
same,glycan array binding signal (z-score),[27],-0.58
same,glycan array binding signal (z-score),[28],-0.374
same,glycan array binding signal (z-score),[29],-0.334
same,glycan array binding signal (z-score),[30],-0.75
same,glycan array binding signal (z-score),[31],-0.362

# Part of the list above, tab-delimited.
binder	measurement	setting	value
PX9961M-bvu-482-23-482 (Bacteroides vulgatus) (protein) WLDLAPSTQVDTETSINVLSDIEFTLNGIYSTMQSSDAYSGRLVYYGDVTGDDMQAVSSTKRTGNYYRFNFTKDNGPSSHWSYLYSIIQNCNLILMNVDKLSIDEDETEYKNDLKGQALAIRGMALFDLTRIFGYPYLKDNGASLGVPIVKELSTIDSKPARNTVAECYTEIISDLKNSTELLSGDFNKGKVNRWAAMTLLSRVYLYKGEYNEALTMAENAIKGAEKEGYALWTNEEYPTAWGNDASASNPGEILFEIVNLTTDSPGKESMGYLNSYNGYDDMCITCSFYQLLKKDPKDVRLKILSFDKKYYAYVNKYQPQQGENITDANIPLIRLSEAYLNAAEAAVQTGDNAKAVKYLNSIVQRANPENSVEGKTLTLENVLDERRKELVAEGHRMYDVIRNGMTVKRIDVKDSDINKTKHNTAYMEYDWNFHKILLPIPKKEMDANPNMKQNPGYVD	glycan array binding signal (z-score)	[27]	-0.58
same	glycan array binding signal (z-score)	[28]	-0.374
